According to paper PMC8763317:
Results are given in words; binding and its absence hold for the method and conditions named. Binding seen in cells or lysates may run through a third protein. A yes stands for co-enrichment or nearness to the bait. Other partners may have been found.

Amino acid sequences for entries named in this document (tags omitted).
UniProt Q96BD5: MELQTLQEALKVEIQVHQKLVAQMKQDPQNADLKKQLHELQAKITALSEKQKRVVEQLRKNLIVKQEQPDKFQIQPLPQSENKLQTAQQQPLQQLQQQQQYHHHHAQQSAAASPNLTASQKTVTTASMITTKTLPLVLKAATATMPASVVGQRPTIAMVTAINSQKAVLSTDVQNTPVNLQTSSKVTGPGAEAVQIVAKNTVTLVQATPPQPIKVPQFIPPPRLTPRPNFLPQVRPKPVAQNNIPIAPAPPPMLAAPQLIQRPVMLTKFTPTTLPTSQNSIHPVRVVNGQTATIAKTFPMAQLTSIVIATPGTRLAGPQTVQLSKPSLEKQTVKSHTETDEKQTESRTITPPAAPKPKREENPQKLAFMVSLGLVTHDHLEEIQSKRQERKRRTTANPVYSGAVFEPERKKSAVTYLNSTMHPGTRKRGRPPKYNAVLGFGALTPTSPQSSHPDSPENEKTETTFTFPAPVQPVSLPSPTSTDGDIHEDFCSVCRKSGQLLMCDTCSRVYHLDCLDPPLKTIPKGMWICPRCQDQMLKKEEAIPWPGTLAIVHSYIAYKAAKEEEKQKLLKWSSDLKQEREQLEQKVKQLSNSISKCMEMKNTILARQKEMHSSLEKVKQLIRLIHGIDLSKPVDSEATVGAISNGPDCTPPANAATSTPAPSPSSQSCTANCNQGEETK
UniProt Q9UKL0: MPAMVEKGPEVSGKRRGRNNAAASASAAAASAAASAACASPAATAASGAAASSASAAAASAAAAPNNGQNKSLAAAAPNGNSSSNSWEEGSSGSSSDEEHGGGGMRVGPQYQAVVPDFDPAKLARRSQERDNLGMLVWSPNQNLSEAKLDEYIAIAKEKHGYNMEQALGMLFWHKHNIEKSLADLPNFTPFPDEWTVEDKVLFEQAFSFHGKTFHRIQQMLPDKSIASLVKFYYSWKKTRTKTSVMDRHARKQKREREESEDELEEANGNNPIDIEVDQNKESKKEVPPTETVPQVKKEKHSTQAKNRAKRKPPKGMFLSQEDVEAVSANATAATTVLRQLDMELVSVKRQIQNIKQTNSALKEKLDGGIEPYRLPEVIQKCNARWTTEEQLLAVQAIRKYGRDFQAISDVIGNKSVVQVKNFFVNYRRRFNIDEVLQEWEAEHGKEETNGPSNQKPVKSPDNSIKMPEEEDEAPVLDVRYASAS
UniProt Q13547: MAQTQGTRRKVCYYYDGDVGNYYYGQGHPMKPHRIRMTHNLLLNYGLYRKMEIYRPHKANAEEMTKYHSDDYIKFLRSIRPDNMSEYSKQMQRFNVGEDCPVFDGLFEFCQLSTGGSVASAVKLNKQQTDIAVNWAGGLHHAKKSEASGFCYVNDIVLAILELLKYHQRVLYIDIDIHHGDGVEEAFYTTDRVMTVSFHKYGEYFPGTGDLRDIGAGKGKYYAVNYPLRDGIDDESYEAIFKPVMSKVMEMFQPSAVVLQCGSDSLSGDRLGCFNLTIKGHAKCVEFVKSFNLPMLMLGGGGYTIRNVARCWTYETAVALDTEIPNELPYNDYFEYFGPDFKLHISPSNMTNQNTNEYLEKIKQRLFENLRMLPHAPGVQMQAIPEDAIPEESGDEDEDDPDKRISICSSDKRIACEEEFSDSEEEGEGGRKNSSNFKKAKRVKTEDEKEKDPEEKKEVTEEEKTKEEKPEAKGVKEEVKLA
UniProt O75461: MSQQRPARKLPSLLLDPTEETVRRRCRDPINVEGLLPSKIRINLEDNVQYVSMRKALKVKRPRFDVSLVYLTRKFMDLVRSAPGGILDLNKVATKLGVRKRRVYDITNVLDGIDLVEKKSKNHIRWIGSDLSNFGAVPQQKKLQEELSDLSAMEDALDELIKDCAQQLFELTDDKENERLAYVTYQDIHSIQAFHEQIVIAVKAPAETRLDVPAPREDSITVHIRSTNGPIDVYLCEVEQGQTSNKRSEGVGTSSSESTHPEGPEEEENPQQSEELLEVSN

Tests used:
Assay in all cases: proximity labelling; BioID in HEK293T cells: BirA*-fused bait transiently transfected, 50 uM biotin for 18 hours; lysate sonicated, biotinylated proteins isolated on streptavidin agarose beads, trypsin digest, LC-MS/MS, label free quantitation; enrichment over BirA*-NLS control (Student's t-test, FDR 0.05, S0 = 2); triplicate or quadruplicate
BirA*-PHF21A = BirA*-PHF21A (UniProt Q96BD5)
BirA*-CoREST1 = BirA*-CoREST1 (UniProt Q9UKL0)
HDAC1-BirA* = HDAC1-BirA* (UniProt Q13547)

Row | Substance | binding (BirA*-PHF21A) | binding (BirA*-CoREST1) | binding (HDAC1-BirA*)
1 | CTBP2 (from UniProt P56545 1-445) | binds | – | –
2 | E2F6 (from UniProt O75461 1-281) | binds | binds | binds
